Test results reported in article PMC7819943, “Rice protein-binding microarrays: a tool to detect cis-acting elements near promoter regions in rice”.
Some of the results follow.

molecular target: T1, OsSMF1 (Oryza sativa, UniProt Q6ZLB0 1-436); assay: protein-binding microarray (RPBM); PBS, 2% BSA, 51.3 ng/ul salmon testes DNA, 50 uM zinc acetate, 200 nM TF, 25 C, 1 h; high values mean tight binding; details: protein: recombinant; tags: N-terminal polyhistidine and DsRed monomer fusion (pET32a); chain copies: 2; label: CyDye5-dUTP incorporated in the synthesized complementary strand; 3' TTTTT single-stranded linker to array surface; dsDNA, one strand shown
T1 sequence: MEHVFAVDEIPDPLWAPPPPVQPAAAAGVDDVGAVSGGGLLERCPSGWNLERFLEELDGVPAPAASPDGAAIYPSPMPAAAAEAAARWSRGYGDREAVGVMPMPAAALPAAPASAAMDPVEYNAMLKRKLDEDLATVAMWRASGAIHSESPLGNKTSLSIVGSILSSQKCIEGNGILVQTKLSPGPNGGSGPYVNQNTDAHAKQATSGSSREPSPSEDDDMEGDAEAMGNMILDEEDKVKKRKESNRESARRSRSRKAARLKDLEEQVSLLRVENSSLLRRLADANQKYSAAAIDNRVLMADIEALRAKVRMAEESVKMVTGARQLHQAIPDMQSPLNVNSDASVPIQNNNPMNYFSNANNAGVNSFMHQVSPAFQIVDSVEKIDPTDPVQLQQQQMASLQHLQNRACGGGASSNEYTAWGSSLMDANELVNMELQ
Method in brief: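 A custom Agilent array was converted to double-stranded form by primer extension with Cy5-dUTP and blocked with 2% BSA. Protein at 200 nM in PBS with 2% BSA, salmon testes DNA and 50 µM zinc acetate was applied for 1 h at 25 °C, followed by washing. The proteins were polyhistidine–DsRed N-terminal fusions of transcription factors, expressed in E. coli BL21-CodonPlus and Ni–NTA-purified. The binding signal is per-feature fluorescence intensity (arbitrary units) from an Axon 4000B scanner.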

| Sequence | binding signal |
| --- | --- |
| GCCTCCTATAAAGCCCGCCACCTCGGTGTGCTTTGGGTGTCGGAGTCACCTAGTGCAG | 3590 fluorescence intensity (a.u.) |
| GATGTGAGTCGATCGATTGGTTGGGTGACAGGTGCGTGCTCGGAGTCACCTAGTGCAG | 3470 fluorescence intensity (a.u.) |
| GTCGATCGATCGCATCAACCCAACCCTACCAAATATAAATCGGAGTCACCTAGTGCAG | 3480 fluorescence intensity (a.u.) |
| TCTACGCGTAGATTTTGCTTTTCTTTGCTTTGCTTTCCAGCGGAGTCACCTAGTGCAG | 22700 fluorescence intensity (a.u.) |
| ATCATGGCAGTCCCAACCCTCCACCTAGGATATTGTCTATCGGAGTCACCTAGTGCAG | 3210 fluorescence intensity (a.u.) |
| CCTCGCCTCGTTTACGTGTCGCCCCGCCCATCCCGCGCGCCGGAGTCACCTAGTGCAG | 8500 fluorescence intensity (a.u.) |
| CCATGTGGGCCCCACCTGCGTCGCCACGTCAGCGTGCTCGCGGAGTCACCTAGTGCAG | 38800 fluorescence intensity (a.u.) |
| GGGGTGAAAATGAATTAGATGCCACGTGCAGGTTCGCATGCGGAGTCACCTAGTGCAG | 10000 fluorescence intensity (a.u.) |
| GTAATGTCAAATTAGTTTGATGTCTTCCTAAGTTTTGATACGGAGTCACCTAGTGCAG | 3220 fluorescence intensity (a.u.) |
| TTATGCAAATGTAAAAGATATAAATCACACTTAAAGTACTCGGAGTCACCTAGTGCAG | 33500 fluorescence intensity (a.u.) |
| CATCACATCACCAGAATCTATCACCTCTGTCACTGTTCTTCGGAGTCACCTAGTGCAG | 3720 fluorescence intensity (a.u.) |
| CGGTGTTGTAAATTGGGCCCATATGTCGTGTACATGCAAGCGGAGTCACCTAGTGCAG | 3880 fluorescence intensity (a.u.) |
| AAGCATGAAATTTGGTTGTTACAGTATGAATATCACAAATCGGAGTCACCTAGTGCAG | 18400 fluorescence intensity (a.u.) |
| CCGGTCTAAATCTGGAATTTCAAATTTGAACTTGAAAGTTCGGAGTCACCTAGTGCAG | 34100 fluorescence intensity (a.u.) |
| GTCACCCTCATGCGTATGACATGGCCGCTGTCTTATGTCGCGGAGTCACCTAGTGCAG | 4480 fluorescence intensity (a.u.) |
| ATTGGCTGACATGTGGGTCCTATTGAATCAGTGAGTCAACCGGAGTCACCTAGTGCAG | 4760 fluorescence intensity (a.u.) |
| GTGAGCGTGTGTGAGTATGGTGTTACATGTTTAATAGTGTCGGAGTCACCTAGTGCAG | 3470 fluorescence intensity (a.u.) |
| TGGCTATCTTACCTCCCTTTTCTGCGCCGCGTCCTCCTCTCGGAGTCACCTAGTGCAG | 3290 fluorescence intensity (a.u.) |
| GAGAGAGAGAGAGATGCGGCGTGGCAGCAGCAGCAGCAGCCGGAGTCACCTAGTGCAG | 3300 fluorescence intensity (a.u.) |
| GTCCTGCTTGTTGATGTCATCCTTCCAGAATTCGATGTCGCGGAGTCACCTAGTGCAG | 5200 fluorescence intensity (a.u.) |
| TTTCTATGCGGGCCACTTAACACGTCCGCACGCGAAAATACGGAGTCACCTAGTGCAG | 4910 fluorescence intensity (a.u.) |

| Sequence | binding signal |
| --- | --- |
| CCTGATCAGAAGTCAGACGTCAGATCTTCCTCATGGCCGACGGAGTCACCTAGTGCAG | 3170 fluorescence intensity (a.u.) |
| TTCTACATTTAATACTCCATGTATGTGTCCAAATATTCGACGGAGTCACCTAGTGCAG | 24800 fluorescence intensity (a.u.) |
| TAGCTAAATGTCAATTTTCTCGTCTATGTGGCAGTCGCCACGGAGTCACCTAGTGCAG | 3640 fluorescence intensity (a.u.) |
| TGCATAGTCCTTGGCTCGAATGCGTGGATGCACTATGTGGCGGAGTCACCTAGTGCAG | 4070 fluorescence intensity (a.u.) |
| TCTCCCTCTACCTCGACGTCATCAACCTCTTCCTCTCCCTCGGAGTCACCTAGTGCAG | 11000 fluorescence intensity (a.u.) |
| GTGTGTGTGTTTGTGTGACCTGGCCTTTGTATGAATGGAACGGAGTCACCTAGTGCAG | 3790 fluorescence intensity (a.u.) |
| CCCTTTCCTCGTCGTCGTCCACGCATGCCGTCCACCGGCGCGGAGTCACCTAGTGCAG | 4680 fluorescence intensity (a.u.) |
| TACTTTTACTTATAAATGTAGTTATTTTAGATCAATTTGACGGAGTCACCTAGTGCAG | 3250 fluorescence intensity (a.u.) |
| CCGGTGAACGGTTTGAGTGAGTGTAGGGGTACACATTTCTCGGAGTCACCTAGTGCAG | 35300 fluorescence intensity (a.u.) |
| TATACATAAATATCTAATTTATATACATTAACCGTCATGACGGAGTCACCTAGTGCAG | 3150 fluorescence intensity (a.u.) |
| GGCAGTCAGACCGGCGGGAGCACAGCGGTCAGACGTGTGGCGGAGTCACCTAGTGCAG | 3560 fluorescence intensity (a.u.) |
| GTCGCCGGCGCCGACACGCAGCTCCTCGTCCCGGCCATGGCGGAGTCACCTAGTGCAG | 4080 fluorescence intensity (a.u.) |
| GGCTCTCTAGCTCGGTCGATCATCCATGACGTCACTACAACGGAGTCACCTAGTGCAG | 9930 fluorescence intensity (a.u.) |
| TCGTTGTGATAGAGAGCATCACTGCATCAGCATCGGCCTACGGAGTCACCTAGTGCAG | 3940 fluorescence intensity (a.u.) |
| TTTGCATTGACTTGATATAGTATGTCACCATCACACTATCCGGAGTCACCTAGTGCAG | 5460 fluorescence intensity (a.u.) |
| ATTTGAAGATGGAAGTGCTGCTCATTAGCTCATGTTGAGGCGGAGTCACCTAGTGCAG | 3370 fluorescence intensity (a.u.) |
| TCGGCGAGGTGAACACAATGGCGATGACGTCGCAATGTGACGGAGTCACCTAGTGCAG | 4690 fluorescence intensity (a.u.) |
| AGCCACTGATACCCACACCTATGGATTGCTGCCCCACTTTCGGAGTCACCTAGTGCAG | 3540 fluorescence intensity (a.u.) |
| CGTTGCCGCGTCGCGACACGTCAGCGCGCGCTGGAGAGAGCGGAGTCACCTAGTGCAG | 8470 fluorescence intensity (a.u.) |
| TCGGCCGCATGCACCGCATCATGCTCAATGCCACGACCACCGGAGTCACCTAGTGCAG | 20700 fluorescence intensity (a.u.) |
| CAAAATCTCATGTCGTGCACGCACATTTTCCATGGCTATACGGAGTCACCTAGTGCAG | 3340 fluorescence intensity (a.u.) |

As a working copy, part of the list above.

| Sequence | binding signal |
| --- | --- |
| CATCACATCACCAGAATCTATCACCTCTGTCACTGTTCTTCGGAGTCACCTAGTGCAG | 3720 fluorescence intensity (a.u.) |
| CGGTGTTGTAAATTGGGCCCATATGTCGTGTACATGCAAGCGGAGTCACCTAGTGCAG | 3880 fluorescence intensity (a.u.) |
| AAGCATGAAATTTGGTTGTTACAGTATGAATATCACAAATCGGAGTCACCTAGTGCAG | 18400 fluorescence intensity (a.u.) |
| CCGGTCTAAATCTGGAATTTCAAATTTGAACTTGAAAGTTCGGAGTCACCTAGTGCAG | 34100 fluorescence intensity (a.u.) |
| GTCACCCTCATGCGTATGACATGGCCGCTGTCTTATGTCGCGGAGTCACCTAGTGCAG | 4480 fluorescence intensity (a.u.) |
| ATTGGCTGACATGTGGGTCCTATTGAATCAGTGAGTCAACCGGAGTCACCTAGTGCAG | 4760 fluorescence intensity (a.u.) |
| GTGAGCGTGTGTGAGTATGGTGTTACATGTTTAATAGTGTCGGAGTCACCTAGTGCAG | 3470 fluorescence intensity (a.u.) |
| TGGCTATCTTACCTCCCTTTTCTGCGCCGCGTCCTCCTCTCGGAGTCACCTAGTGCAG | 3290 fluorescence intensity (a.u.) |
| GAGAGAGAGAGAGATGCGGCGTGGCAGCAGCAGCAGCAGCCGGAGTCACCTAGTGCAG | 3300 fluorescence intensity (a.u.) |
